This note sets out measurements from patent US12102685B2 (priority 2020, dated 2024).

The series in a line: peptide synthesis. The following applies: percent yield of correct species by MS; for step yield: lipidation step.

Strings that start with PEPTIDE1 are HELM notation: dots part the residues, brackets hold end groups and non-standard residues.

Consider “PEPTIDE1{[dec].K.K.G.F.Y.K.K.K.Q.C.R.P.S.K.G.R.K.R.G.F.C.W}$$$$V2.0”, for which the step yield came to 98.0%. Substance “PEPTIDE1{[lau].K.K.G.F.Y.K.K.K.Q.C.R.P.S.K.G.R.K.R.G.F.C.W}$$$$V2.0” gave a step yield of 96.7%. Substance “PEPTIDE1{[vlp].K.K.G.F.Y.K.K.K.Q.C.R.P.S.K.G.R.K.R.G.F.C.W}$$$$V2.0” came in with a conjugation yield (conjugation step) of 84.9%.
